One experiment deals with T1, RBM42-HA (human) (UniProt Q9BTD8).
T1 sequence: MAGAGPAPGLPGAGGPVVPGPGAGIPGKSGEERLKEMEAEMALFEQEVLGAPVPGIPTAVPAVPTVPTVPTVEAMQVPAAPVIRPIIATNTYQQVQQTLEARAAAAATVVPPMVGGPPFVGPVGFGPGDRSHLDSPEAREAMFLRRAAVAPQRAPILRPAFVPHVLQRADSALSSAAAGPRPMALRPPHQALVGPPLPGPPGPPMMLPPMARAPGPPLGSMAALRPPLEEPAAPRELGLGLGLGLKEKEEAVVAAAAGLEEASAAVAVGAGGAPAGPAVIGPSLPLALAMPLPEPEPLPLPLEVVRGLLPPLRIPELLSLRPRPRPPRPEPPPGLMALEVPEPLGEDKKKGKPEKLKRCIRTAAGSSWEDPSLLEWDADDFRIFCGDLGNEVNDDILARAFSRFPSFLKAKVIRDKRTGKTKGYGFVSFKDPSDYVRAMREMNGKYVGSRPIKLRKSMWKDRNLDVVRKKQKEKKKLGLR
Nature of the experiment: co-IP.

Sequences of proteins named here, by UniProt entry; tags and fusion partners are left off.
UniProt P04406: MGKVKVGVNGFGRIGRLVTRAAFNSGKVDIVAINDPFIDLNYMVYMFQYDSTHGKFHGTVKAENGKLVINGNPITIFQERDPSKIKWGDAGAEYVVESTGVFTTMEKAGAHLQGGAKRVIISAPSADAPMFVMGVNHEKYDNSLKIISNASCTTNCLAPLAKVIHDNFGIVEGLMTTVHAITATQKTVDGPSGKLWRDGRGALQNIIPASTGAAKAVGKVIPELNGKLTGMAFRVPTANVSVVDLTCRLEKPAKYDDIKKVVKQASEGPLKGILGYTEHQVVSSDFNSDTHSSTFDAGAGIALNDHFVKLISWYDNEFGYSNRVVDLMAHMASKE
UniProt O75643: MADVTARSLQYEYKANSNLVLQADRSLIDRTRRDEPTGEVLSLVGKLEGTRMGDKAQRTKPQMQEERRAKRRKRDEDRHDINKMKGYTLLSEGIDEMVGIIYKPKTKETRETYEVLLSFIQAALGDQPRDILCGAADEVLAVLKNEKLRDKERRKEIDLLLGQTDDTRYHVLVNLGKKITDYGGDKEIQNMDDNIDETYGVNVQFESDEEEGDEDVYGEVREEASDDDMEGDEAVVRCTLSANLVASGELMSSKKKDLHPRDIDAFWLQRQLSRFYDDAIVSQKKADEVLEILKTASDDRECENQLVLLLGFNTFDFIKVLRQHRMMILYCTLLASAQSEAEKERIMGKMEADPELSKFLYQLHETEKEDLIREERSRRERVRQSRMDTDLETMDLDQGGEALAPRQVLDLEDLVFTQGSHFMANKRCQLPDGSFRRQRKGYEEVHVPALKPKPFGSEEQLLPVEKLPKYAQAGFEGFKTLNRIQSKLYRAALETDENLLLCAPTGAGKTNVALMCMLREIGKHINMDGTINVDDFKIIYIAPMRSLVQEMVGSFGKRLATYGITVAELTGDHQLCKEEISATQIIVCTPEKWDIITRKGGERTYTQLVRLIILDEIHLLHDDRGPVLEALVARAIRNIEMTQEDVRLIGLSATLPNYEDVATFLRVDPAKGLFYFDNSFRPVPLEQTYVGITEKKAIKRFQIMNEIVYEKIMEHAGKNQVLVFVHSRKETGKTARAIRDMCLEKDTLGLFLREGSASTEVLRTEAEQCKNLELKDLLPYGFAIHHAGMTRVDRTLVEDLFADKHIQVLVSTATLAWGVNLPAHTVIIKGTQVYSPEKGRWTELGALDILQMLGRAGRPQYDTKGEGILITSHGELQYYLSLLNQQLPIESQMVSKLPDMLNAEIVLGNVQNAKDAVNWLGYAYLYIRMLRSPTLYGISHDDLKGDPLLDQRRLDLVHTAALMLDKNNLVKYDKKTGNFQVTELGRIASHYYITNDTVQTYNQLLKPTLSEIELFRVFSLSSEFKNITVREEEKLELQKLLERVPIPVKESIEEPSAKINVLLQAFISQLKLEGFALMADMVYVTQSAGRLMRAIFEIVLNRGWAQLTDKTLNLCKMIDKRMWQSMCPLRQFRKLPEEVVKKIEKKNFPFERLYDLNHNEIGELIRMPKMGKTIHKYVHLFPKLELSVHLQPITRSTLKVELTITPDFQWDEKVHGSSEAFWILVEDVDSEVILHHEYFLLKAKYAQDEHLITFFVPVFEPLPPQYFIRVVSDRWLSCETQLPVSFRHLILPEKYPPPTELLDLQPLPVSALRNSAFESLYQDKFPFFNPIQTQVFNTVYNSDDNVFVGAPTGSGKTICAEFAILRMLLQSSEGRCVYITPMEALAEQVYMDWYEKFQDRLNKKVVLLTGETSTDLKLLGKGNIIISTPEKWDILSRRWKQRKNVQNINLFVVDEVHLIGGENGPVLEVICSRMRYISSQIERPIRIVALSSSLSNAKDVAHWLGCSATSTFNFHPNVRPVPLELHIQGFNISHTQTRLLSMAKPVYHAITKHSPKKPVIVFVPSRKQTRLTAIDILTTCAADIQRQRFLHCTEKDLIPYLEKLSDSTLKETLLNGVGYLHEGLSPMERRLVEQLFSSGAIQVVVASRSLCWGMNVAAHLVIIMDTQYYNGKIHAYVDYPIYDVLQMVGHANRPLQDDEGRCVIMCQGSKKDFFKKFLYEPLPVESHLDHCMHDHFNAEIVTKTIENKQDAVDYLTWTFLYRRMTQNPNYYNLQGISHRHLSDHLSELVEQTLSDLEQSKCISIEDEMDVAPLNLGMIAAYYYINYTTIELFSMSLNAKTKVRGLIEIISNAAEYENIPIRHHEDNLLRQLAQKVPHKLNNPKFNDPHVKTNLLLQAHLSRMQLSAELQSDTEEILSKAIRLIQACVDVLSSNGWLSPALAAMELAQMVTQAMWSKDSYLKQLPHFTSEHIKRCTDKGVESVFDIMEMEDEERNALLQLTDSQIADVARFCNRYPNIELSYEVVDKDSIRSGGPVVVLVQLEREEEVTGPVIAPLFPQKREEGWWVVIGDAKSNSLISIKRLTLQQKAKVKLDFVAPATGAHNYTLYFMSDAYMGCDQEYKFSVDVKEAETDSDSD
UniProt P20042: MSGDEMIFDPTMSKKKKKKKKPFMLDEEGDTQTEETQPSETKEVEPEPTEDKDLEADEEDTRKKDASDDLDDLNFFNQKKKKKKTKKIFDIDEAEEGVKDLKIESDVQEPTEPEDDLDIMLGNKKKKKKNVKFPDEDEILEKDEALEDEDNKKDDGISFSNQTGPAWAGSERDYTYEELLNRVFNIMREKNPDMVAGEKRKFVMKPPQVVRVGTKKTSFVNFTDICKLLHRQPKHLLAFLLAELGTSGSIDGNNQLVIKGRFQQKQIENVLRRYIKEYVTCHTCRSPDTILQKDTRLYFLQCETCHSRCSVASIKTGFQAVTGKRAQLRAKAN
UniProt P60842: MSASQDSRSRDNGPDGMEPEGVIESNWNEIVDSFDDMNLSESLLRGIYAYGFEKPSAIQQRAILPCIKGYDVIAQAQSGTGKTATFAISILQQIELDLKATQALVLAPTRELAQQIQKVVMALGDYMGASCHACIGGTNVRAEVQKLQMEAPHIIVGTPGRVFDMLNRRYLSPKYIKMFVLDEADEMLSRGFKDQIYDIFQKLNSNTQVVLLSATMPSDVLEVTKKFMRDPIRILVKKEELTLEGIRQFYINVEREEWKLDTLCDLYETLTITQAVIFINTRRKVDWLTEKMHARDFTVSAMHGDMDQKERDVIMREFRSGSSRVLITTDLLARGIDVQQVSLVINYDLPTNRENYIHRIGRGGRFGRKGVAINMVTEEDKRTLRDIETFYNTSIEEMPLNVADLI
UniProt P06730: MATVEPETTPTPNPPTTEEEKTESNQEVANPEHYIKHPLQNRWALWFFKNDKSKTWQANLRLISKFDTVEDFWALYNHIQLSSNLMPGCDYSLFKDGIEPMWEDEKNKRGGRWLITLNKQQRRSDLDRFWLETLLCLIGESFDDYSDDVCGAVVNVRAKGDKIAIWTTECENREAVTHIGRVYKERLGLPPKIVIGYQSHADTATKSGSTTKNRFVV

Experiment [1] deals with T2, RBM42 (RNA binding motif protein 42), endogenous (human (endogenous in Panc-1)) (UniProt Q9BTD8).
T2 sequence: T1 sequence
Put plainly: proximity ligation.

Results are given in words; binding and its absence hold for the method and conditions named. Binding seen in cells or lysates may run through a third protein. Some binding calls cover weakened binding; strength is not graded here. For some of these results: Tags and fused reporters may be left off the sequences shown.

On to “EGFR (from UniProt P00533 25-1210) (receptor)”, for which the binding result with RBM42-HA (human) is “no binding”.

As to “GAPDH (from UniProt P04406 1-335) (enzyme)”, the binding entry in the experiment with RBM42-HA (human) was “no binding”.

As to SNRNP200 (from UniProt O75643 1-2136), in the experiment with RBM42-HA (human), the binding entry is “binds”.

With eIF2β (from UniProt P20042 1-333), the binding result (in the experiment with RBM42-HA (human); in experiment [1]) was “binds” each time.

As for eIF4A1 (from UniProt P60842 1-406), in the experiment with RBM42-HA (human), the binding result was “binds weakly”.

For the substance eIF4E (from UniProt P06730 1-217), the binding result with RBM42-HA (human) is recorded as “binds weakly”.

Values taken from doi:10.1101/2024.10.10.617637.
